No constants are given. Whether binding was seen depends on the method and setting. Binding can be weak; no strength is given.
Molecular target: TβR-V/LRP-1 in mink lung epithelial cells (Mv1Lu cells) (mink)
Assay: specific binding of 2 nM 125I-α2M* to Mv1Lu cells at pH 7.4, 0 C

B1: α2M activated by methylamine (α2M*) (ligand, human, UniProt P01023 24-1474, looked up)
chain: SVSGKPQYMVLVPSLLHTETTEKGCVLLSYLNETVTVSASLESVRGNRSLFTDLEAENDVLHCVAFAVPKSSSNEEVMFLTVQVKGPTQEFKKRTTVMVKNEDSLVFVQTDKSIYKPGQTVKFRVVSMDENFHPLNELIPLVYIQDPKGNRIAQWQSFQLEGGLKQFSFPLSSEPFQGSYKVVVQKKSGGRTEHPFTVEEFVLPKFEVQVTVPKIITILEEEMNVSVCGLYTYGKPVPGHVTVSICRKYSDASDCHGEDSQAFCEKFSGQLNSHGCFYQQVKTKVFQLKRKEYEMKLHTEAQIQEEGTVVELTGRQSSEITRTITKLSFVKVDSHFRQGIPFFGQVRLVDGKGVPIPNKVIFIRGNEANYYSNATTDEHGLVQFSINTTNVMGTSLTVRVNYKDRSPCYGYQWVSEEHEEAHHTAYLVFSPSKSFVHLEPMSHELPCGHTQTVQAHYILNGGTLLGLKKLSFYYLIMAKGGIVRTGTHGLLVKQEDMKGHFSISIPVKSDIAPVARLLIYAVLPTGDVIGDSAKYDVENCLANKVDLSFSPSQSLPASHAHLRVTAAPQSVCALRAVDQSVLLMKPDAELSASSVYNLLPEKDLTGFPGPLNDQDNEDCINRHNVYINGITYTPVSSTNEKDMYSFLEDMGLKAFTNSKIRKPKMCPQLQQYEMHGPEGLRVGFYESDVMGRGHARLVHVEEPHTETVRKYFPETWIWDLVVVNSAGVAEVGVTVPDTITEWKAGAFCLSEDAGLGISSTASLRAFQPFFVELTMPYSVIRGEAFTLKATVLNYLPKCIRVSVQLEASPAFLAVPVEKEQAPHCICANGRQTVSWAVTPKSLGNVNFTVSAEALESQELCGTEVPSVPEHGRKDTVIKPLLVEPEGLEKETTFNSLLCPSGGEVSEELSLKLPPNVVEESARASVSVLGDILGSAMQNTQNLLQMPYGCGEQNMVLFAPNIYVLDYLNETQQLTPEIKSKAIGYLNTGYQRQLNYKHYDGSYSTFGERYGRNQGNTWLTAFVLKTFAQARAYIFIDEAHITQALIWLSQRQKDNGCFRSSGSLLNNAIKGGVEDEVTLSAYITIALLEIPLTVTHPVVRNALFCLESAWKTAQEGDHGSHVYTKALLAYAFALAGNQDKRKEVLKSLNEEAVKKDNSVHWERPQKPKAPVGHFYEPQAPSAEVEMTSYVLLAYLTAQPAPTSEDLTSATNIVKWITKQQNAQGGFSSTQDTVVALHALSKYGAATFTRTGKAAQVTIQSSGTFSSKFQVDNNNRLLLQQVSLPELPGEYSMKVTGEGCVYLQTSLKYNILPEKEEFPFALGVQTLPQTCDEPKAHTSFQISLSVSYTGSRSASNMAIVDVKMVSGFIPLKPTVKMLERSNHVSRTEVSSNHVLIYLDKVSNQTLSLFFTVLQDVPVRDLKPAIVKVYDYYETDEFAIAEYNAPCSKDLGNA
modifications: activated by methylamine; 125I-labelled where used as tracer
For B1, the binding was “binds”.
